Results reported in publication PMC10614411, “Endometrial cancer (EC) derived G3BP1 overexpression and mutant promote EC tumorigenesis and metastasis via SPOP/ERα axis” (Cell Communication and Signaling : CCS, 2023).
These are yes or no findings as the source states them, for the method shown. In cells and extracts the contact can be indirect. Some entries that bind do so weakly or less than the wild type.

The chains behind the UniProt entries cited, without tags or fusion partners. Where a name states a change or a piece, a line headed by the entry shows the natural chain unless it says otherwise.
UniProt O43791: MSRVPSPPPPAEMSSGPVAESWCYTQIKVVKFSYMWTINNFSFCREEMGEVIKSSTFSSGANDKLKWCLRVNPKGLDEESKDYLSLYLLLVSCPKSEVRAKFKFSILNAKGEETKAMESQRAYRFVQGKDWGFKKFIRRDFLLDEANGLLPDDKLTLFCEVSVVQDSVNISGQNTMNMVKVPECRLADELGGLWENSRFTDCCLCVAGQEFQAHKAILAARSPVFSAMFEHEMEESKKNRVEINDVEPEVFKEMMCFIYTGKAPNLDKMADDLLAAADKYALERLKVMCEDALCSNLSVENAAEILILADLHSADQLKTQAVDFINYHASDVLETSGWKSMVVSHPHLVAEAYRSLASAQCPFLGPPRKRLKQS
UniProt P03372: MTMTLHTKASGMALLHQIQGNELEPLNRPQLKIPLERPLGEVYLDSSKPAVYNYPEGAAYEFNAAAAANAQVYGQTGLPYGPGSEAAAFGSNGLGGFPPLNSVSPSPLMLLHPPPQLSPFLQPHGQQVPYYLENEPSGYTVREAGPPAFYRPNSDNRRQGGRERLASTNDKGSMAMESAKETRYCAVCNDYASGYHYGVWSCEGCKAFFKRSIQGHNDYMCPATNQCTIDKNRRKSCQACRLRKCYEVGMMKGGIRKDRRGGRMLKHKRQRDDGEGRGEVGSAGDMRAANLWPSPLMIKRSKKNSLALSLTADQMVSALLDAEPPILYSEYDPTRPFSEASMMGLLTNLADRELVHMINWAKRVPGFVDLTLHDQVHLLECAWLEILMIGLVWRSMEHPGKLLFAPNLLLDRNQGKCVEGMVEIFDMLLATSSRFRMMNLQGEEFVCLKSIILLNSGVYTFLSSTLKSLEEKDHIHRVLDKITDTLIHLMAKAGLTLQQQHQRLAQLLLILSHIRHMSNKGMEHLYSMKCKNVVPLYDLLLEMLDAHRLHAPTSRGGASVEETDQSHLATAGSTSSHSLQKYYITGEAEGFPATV
UniProt Q13283: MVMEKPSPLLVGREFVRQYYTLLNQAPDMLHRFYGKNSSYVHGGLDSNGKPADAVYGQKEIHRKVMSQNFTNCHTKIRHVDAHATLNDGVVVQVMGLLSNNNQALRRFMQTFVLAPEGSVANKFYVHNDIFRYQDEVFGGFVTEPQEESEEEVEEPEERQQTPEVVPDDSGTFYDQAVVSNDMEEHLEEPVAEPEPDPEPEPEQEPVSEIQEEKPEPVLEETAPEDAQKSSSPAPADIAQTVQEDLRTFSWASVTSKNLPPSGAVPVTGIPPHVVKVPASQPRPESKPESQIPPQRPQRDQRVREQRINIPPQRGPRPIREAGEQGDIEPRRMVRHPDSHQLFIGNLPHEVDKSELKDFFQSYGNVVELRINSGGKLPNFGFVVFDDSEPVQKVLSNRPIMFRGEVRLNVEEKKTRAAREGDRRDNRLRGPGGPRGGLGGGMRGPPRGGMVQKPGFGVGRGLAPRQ

Molecular target: Speckle-type POZ protein (SPOP), expressed in HEK293T cells (UniProt O43791)
Experiment: co-IP; HEK 293T cells transfected with the indicated constructs, MG132 for 8 h (30 uM in the methods, 25 uM in the legend), lysed in Medium RIPA buffer; anti-Flag M2 agarose beads overnight, washed 3 times with BC100, eluted with FLAG peptide, Western blot; in one panel with increasing G3BP1

binding, binds:
Estrogen receptor alpha (ERα), expressed in HEK293T cells (from UniProt P03372 1-595)
G3BP1 Q392* (endometrial-cancer nonsense mutant), expressed in HEK293T cells (from UniProt Q13283 1-391) (domain or fragment)
Ras-GTPase-activating protein binding protein 1 (G3BP1), wild type, expressed in HEK293T cells (from UniProt Q13283 1-466)
